Assay [1] deals with T1, Aldo-keto reductase 1C3 (AKR1C3) (human (endogenous in VCaP, 22RV1, 22RV1 T and HEK293)) (UniProt P42330).
T1 sequence: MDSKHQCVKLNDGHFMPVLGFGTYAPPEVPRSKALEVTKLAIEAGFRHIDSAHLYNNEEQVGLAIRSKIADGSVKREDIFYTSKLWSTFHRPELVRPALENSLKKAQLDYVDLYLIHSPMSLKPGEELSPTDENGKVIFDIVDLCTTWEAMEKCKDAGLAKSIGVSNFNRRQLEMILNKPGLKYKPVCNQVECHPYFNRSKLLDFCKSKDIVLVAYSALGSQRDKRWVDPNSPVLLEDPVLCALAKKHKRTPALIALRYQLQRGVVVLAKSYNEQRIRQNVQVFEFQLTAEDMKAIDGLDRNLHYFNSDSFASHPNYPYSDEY
Description: co-IP; cell lysates of VCaP, 22RV1 (22RV1 T in the methods) and GFP-AR-V7 transfected HEK293 immunoprecipitated with AKR1C3 antibody on Dynabeads Protein G; bound proteins analysed by Western blot.

Amino acid sequences for entries named in this document (tags omitted). A change or cut given only in a name is not applied to a line headed by its entry.
UniProt P10275: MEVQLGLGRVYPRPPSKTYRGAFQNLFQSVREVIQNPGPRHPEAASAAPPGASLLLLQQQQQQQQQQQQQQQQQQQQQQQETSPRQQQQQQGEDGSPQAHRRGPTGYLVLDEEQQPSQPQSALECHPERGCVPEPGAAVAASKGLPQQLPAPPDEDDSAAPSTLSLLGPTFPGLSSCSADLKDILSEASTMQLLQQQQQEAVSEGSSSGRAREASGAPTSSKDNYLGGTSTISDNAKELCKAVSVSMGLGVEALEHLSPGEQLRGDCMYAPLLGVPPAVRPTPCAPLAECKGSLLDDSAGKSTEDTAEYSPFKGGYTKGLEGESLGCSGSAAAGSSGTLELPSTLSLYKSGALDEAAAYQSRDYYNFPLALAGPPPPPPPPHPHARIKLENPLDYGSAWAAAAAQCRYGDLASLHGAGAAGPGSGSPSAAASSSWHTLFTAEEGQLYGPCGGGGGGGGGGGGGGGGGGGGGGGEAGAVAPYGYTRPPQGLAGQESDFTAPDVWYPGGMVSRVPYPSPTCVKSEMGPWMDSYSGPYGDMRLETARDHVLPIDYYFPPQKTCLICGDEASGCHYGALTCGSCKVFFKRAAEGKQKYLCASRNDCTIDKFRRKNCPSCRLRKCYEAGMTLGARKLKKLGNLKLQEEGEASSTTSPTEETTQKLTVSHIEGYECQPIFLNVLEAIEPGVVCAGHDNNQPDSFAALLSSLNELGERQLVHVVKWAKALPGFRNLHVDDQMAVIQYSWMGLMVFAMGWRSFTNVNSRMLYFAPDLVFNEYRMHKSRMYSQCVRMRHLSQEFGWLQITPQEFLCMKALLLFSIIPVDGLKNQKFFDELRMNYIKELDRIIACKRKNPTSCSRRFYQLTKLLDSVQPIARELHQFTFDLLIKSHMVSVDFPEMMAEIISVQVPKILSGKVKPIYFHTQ

Assay [2] has as its target T1, Aldo-keto reductase 1C3 (AKR1C3) (human (endogenous in VCaP, 22RV1, 22RV1 T and HEK293)). Description: co-IP; lysates of subcutaneous 22RV1 T xenografts (castrated nude mice) immunoprecipitated with AKR1C3 antibody on protein G beads; bound proteins analysed by Western blot. (A western blot detects proteins with antibodies after separation by electrophoresis.)

No constants are given. Whether binding was seen depends on the method and setting. In cells and extracts the contact can be indirect. Some results given as binding are weak or reduced against the parent protein; the word gives no strength.

Regarding “Androgen receptor splice variant-7 (AR-V7), endogenous (from UniProt P10275-3 1-644)”, the binding result in assay [1] and in assay [2] was “binds” each time.
On to “GFP-AR-V7 fusion protein (from UniProt P10275-3 1-644)”, for which the binding result in assay [1] is reported as “binds”.
As to “Full-length androgen receptor (AR-FL), endogenous (from UniProt P10275 1-920)”, the binding result in assay [2] is “binds”.

For the origin of these results see PMC7579719.
